Reference: US20190112385A1 (NBE THERAPEUTICS, published 2019)
These are yes or no findings as the source states them, for the method shown. Some binding calls cover weakened binding; strength is not graded here.

Amino acid sequences for entries named in this document (tags omitted). A change or cut given only in a name is not applied to a line headed by its entry. Chains listed by the source or under a name are the forms on record and can include a tag or linker.
StrepII-tagged Mesothelin (human mesothelin isoform 2, NP_037536, with C-terminal strepII-tag) (Q13421, form named): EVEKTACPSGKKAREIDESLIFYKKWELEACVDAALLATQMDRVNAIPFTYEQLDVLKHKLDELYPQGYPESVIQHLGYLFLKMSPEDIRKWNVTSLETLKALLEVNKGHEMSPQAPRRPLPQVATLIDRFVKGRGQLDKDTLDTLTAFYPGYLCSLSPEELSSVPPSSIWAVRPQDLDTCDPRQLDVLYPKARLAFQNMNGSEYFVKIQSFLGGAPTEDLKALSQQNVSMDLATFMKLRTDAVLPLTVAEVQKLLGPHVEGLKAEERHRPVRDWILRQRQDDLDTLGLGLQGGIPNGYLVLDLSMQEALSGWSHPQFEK

Experiments:
[1] = biological target: StrepII-tagged Mesothelin (human mesothelin isoform 2, NP_037536, with C-terminal strepII-tag) (human) (UniProt Q13421); assay: SPR isoaffinity plot (ka against kd); mAb from 293T supernatant captured by anti-human Fc-gamma IgG, Mesothelin-strep as analyte
[2] = biological target: StrepII-tagged Mesothelin (human mesothelin isoform 2, NP_037536, with C-terminal strepII-tag) (human) (UniProt Q13421); assay: ELISA of L11 clone supernatant on plates coated with a limiting concentration of Mesothelin, in parallel with a sandwich ELISA for IgG; values calculated from the MN standard curve [ctd) D]
[3] = biological target: StrepII-tagged Mesothelin (human mesothelin isoform 2, NP_037536, with C-terminal strepII-tag) (human) (UniProt Q13421); assay: SPR (Biacore T200), mAb from 293T supernatant captured by anti-human Fc-gamma antibody, Mesothelin in 1:2 dilutions from 10 nM [ctd]
[4] = biological target: StrepII-tagged Mesothelin (human mesothelin isoform 2, NP_037536, with C-terminal strepII-tag) (human) (UniProt Q13421); assay: flow cytometry, surface-displayed IgG on L11 cells stained with strep-tagged antigen
[5] = biological target: StrepII-tagged Mesothelin (human mesothelin isoform 2, NP_037536, with C-terminal strepII-tag) (human) (UniProt Q13421); assay: SPR (Biacore T200), mAb from 293T supernatant captured by anti-human Fc-gamma antibody, Mesothelin in 1:2 dilutions from 10 nM
[6] = biological target: StrepII-tagged Mesothelin (human mesothelin isoform 2, NP_037536, with C-terminal strepII-tag) (human) (UniProt Q13421); assay: ELISA on plates coated with a limiting concentration of Mesothelin, in parallel with a sandwich ELISA for IgG; parental mAb MN as standard [ctd) D]

| Binder | binding [1] | binding [2] | binding [3] | binding [4] | binding [5] | binding [6] |
| --- | --- | --- | --- | --- | --- | --- |
| huMN3-1 (antibody, V domains shown) VH: QVQLQQSGAELVKPGASMKLSCKASGYTFTSYWMHWVRQAPGQGLEWIGAIHPNSDNTIYYQKFKSRVTLTVDKSISTAYMQLSSLTSEDTAVYYCAIIITPVVPKFDYWGQGTTVTVSS VL: DIQMTQSPSFLSASVGDRVTITCRASHDVGTSLAWYQQKPGQAPKLLIYWASTLQTGVPSRFSGSGSGTEFTLTISSLQPEDFATYYCQQYSSYPLTFGPGTTVDMK | binds | binds | binds | – | – | – |
| huMN5-2 (antibody, V domains shown, No sheet says in words that huMN5a is huMN5-2) VH: QVQLQQSGAELVKPGASLKLSCKASGYTFTSYWMHWVRQAPGQGLEWIGAIHPNSDNTIYYQKFKSRFTITVDKSTSTAYMQLSSLTSEDTAVYYCAIIITPVVPKFDYWGQGTTVTVSS VL: DIVMTQSSSFMSASVGDRVSITCKASHDVGTSLAWYQQKPGQSPKLLIYWASTRQTGVPDRFSGSGSGTDFTLTISSVQSEDVATYFCQQYSSYPLTFGQGTKLEIK | binds | – | binds | – | – | – |

Continued, values first:

| binding [1] | binding [2] | binding [3] | binding [4] | binding [5] | binding [6] | Binder |
| --- | --- | --- | --- | --- | --- | --- |
| binds | – | – | binds | binds | binds | parental anti-Mesothelin mouse mAb MN, produced as chimeric full-length IgG1 antibody with human constant regions (antibody, V domains shown, also called VH-MN (parental mouse); parental chimeric antibody) VH: QVQLQQPGAELVKPGASMKLSCKASGYTFTSYWMHWVKQRPGQGLEWIGMIHPNSDNTIYYEKFKSKATLTVDKSSSTAYMQLSSLTSEDSAVYYCAIIITPVVPKFDYWGQGTTLTVSS VL: DIVMTQSHQFMSTSVGDRVSVTCKASHDVGTSVAWYQQKPGQSPKLLIYWASTRHTGVPDRFTGSGSGTDFTLTISNVQSEDLADYFCQQYSSYPLTFGAGTKLELK |
| binds | – | – | – | binds | – | huMN5-3 (antibody, V domains shown, No sheet says in words that huMN5b is huMN5-3) VH: QVQLQQSGAELVKPGASLKLSCKASGYTFTSYWMHWVRQAPGQGLEWIGAIHPNSDNTIYYQKFKSRFTITVDKSTSTAYMQLSSLTSEDTAVYYCAIIITPVVPKFDYWGQGTTVTVSS VL: DIVMTQSPDSLAVSLGERATITCKSSHDVGTSLAWYQQKPGQPPKLLIYWASTRESGVPDRFSGSGSGTDFTLTISSLQAEDVAVYYCQQYSSYPLTFGQGTKLEIK |
